Chains of the proteins cited; added tags and fusions are not shown. Lines headed by an entry give the natural chain unless they say otherwise; changes in a name come on top.
UniProt Q13136: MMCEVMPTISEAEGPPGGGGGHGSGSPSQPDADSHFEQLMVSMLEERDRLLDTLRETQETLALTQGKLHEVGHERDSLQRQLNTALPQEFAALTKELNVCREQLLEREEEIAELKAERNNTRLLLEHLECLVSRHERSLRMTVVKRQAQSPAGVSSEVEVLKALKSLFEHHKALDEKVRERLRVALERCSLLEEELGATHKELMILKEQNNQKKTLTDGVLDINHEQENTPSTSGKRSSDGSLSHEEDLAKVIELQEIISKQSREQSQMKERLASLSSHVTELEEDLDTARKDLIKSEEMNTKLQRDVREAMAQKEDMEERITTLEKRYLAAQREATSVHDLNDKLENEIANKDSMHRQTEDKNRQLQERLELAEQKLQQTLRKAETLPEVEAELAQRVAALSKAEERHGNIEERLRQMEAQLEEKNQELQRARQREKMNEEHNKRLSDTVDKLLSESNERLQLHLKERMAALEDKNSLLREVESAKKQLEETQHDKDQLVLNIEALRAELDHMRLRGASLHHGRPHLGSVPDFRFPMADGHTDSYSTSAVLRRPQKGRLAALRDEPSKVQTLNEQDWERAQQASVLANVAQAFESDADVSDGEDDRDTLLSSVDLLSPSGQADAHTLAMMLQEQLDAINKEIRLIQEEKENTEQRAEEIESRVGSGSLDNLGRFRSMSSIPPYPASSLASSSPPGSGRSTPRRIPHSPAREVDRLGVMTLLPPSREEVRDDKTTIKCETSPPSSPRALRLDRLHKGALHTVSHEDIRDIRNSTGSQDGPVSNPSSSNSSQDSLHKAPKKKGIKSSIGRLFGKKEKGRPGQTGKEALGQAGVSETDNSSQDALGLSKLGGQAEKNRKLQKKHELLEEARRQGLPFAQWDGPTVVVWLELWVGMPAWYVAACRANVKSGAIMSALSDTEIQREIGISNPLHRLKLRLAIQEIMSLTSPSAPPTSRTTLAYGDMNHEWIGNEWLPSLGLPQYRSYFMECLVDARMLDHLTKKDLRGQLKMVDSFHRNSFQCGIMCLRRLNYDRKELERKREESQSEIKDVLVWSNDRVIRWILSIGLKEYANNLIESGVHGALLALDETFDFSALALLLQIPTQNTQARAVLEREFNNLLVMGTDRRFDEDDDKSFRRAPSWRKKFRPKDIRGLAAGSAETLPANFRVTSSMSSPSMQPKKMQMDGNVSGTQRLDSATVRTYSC

According to article PMC5679597:

Key:
[1] = biological target: T1, GFP-LNX1 PDZ2 (aa377-470) (mouse) (UniProt O70263); experiment: pull-down; GFP pull-down: GFP-tagged LNX constructs transfected into HEK 293 cells (HEK 293T in Fig 3A) alone or with the partner, captured on GFP-Trap_M beads, western blot; NaCl in the wash up to 500 mM in some cases
T1 sequence: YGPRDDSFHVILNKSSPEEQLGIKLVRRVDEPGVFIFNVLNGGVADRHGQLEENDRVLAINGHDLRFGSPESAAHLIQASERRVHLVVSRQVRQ

GFP-tagged MID2 (human) = biological target: T2, GFP-tagged MID2 (human) (UniProt Q9UJV3); experiment: pull-down; GFP pull-down of GFP-tagged MID2 from cells co-transfected with untagged LNX1p70 and FLAG-liprin-α1, western blot
T2 sequence: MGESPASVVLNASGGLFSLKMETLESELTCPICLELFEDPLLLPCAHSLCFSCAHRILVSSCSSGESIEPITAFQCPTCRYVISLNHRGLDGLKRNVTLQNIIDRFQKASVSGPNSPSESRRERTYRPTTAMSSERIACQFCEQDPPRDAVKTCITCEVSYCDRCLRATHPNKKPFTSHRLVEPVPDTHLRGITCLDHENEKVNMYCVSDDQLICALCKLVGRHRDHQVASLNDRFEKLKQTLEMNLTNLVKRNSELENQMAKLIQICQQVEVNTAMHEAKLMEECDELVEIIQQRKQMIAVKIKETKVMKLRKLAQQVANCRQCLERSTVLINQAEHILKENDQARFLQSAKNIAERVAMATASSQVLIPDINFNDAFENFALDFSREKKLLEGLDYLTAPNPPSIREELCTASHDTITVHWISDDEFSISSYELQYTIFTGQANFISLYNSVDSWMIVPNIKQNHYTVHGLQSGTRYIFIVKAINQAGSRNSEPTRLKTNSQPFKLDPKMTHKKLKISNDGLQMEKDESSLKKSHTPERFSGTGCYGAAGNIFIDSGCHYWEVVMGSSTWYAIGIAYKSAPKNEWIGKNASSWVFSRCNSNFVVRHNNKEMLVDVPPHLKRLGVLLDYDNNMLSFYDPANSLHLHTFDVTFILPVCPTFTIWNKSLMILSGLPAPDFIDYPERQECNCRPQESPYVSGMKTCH

Row | binding [1] | binding (GFP-tagged MID2 (human)) | Substance
1 | no binding |  | FLAG-liprin-α1-C-mut (carboxyl-terminal YSC* to DSE*) (from UniProt Q13136)
2 |  | binds | untagged LNX1p70

No constants are given. Whether binding was seen depends on the method and setting. Binding seen in cells or lysates may run through a third protein. For some assays here: A result given as binding can be weak or reduced; the word gives no strength. Where a sequence is shown, tags or fusion partners need not be part of it.
